# Screen size: about 360,000 compounds; about 7,500 (2.1%) were called active. Inconclusive means that the source gave no clear call. Such entries were picked first, then a sample of the others. The call rests on the fitted dose curve; in most records, active means well fitted inhibition curve with a large enough effect; inconclusive means small, poorly fitted or top-dose-only effect, or effect the other way; inactive means flat fitted curve, though single readings scatter. Where the call is inconclusive, the potency comes from a doubtful curve fit.
# Experiment: Nrf2 qHTS screen for inhibitors; further: nearly all actives have a fitted effect of over 60% in size
# Settings: A549 ARE-Fluc reporter, luciferase luminescence, 18-24 h; activity change, negative = inhibition: at 46 µM (top of the series)
# How it was run: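 Concentration-response testing used A549 ARE_Fluc cells at 5000 cells/well. Following an 18-24 h compound incubation, viability was read by fluorescence (Ex 405/Em 525) and luciferase output by luminescence.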
# On the % scale 0 is the no-effect control and ±100 the full control effect; potency means the concentration at half of the fitted maximal effect.
Compound,Potency,"activity change, negative = inhibition"
CC(NS(=O)(=O)c1ccc(OCC(=O)NCc2ccccn2)cc1)c1ccccc1 (configuration not stated),"inconclusive: 0.58 µM [activator, full curve]",
CC(C)C(NC(=O)c1ccc(C(C)(C)C)cc1)C(=O)Nc1ccc(N2CCOCC2)cc1 (configuration not stated),"inconclusive: 16.4 µM [falling, partial curve]",
CCOc1cc2[nH]c(=S)n(CCN3CCCCC3CC)c(=O)c2cc1OCC (configuration not stated),,inactive: -21.2%
O=C(Nc1ccc2oc(-c3ccccc3)nc2c1)C1CCCO1 (configuration not stated),"inconclusive: 1.03 µM [activator, full curve]",
N#Cc1ccc(-c2cccnc2)nc1SCc1ccc(Cl)c(Cl)c1,active: 23.1 µM,
Cc1cc(C(=O)COC(=O)Cc2ccc(Br)cc2)c(C)n1C,,inactive: 10.8%
CN(NC(=O)Nc1ccc(Cl)cc1)c1ncc(C(F)(F)F)cc1Cl,"inconclusive: 29.1 µM [falling, single point]",
Cc1cccc(-c2nnc(SCCC(=O)N3CCOCC3)o2)c1,"inconclusive: 14.6 µM [falling, single point]",
O=C(NC1CC1)C1CCN(C(=O)c2ccc(Cl)cc2Cl)CC1,"inconclusive: 29.1 µM [falling, single point]",
COc1ccc2c(c1)-c1nc(/N=C/c3ccc(O)c(OC)c3)sc1CC2,"inconclusive: 1.84 µM [falling, partial curve, poor fit]",
CN(c1ccccc1)C(CNS(=O)(=O)c1ccccc1)c1ccccc1 (configuration not stated),"inconclusive: 29.1 µM [falling, single point]",
CC(=O)c1ccc(S(=O)(=O)N2CCN(C(C)C(=O)N(C)Cc3ccccc3)CC2)cc1 (configuration not stated),"inconclusive: 29.1 µM [falling, single point]",
COc1ccc(OCC(=O)Nc2ccccc2O)cc1,"inconclusive: 20.6 µM [activator, single point]",
O=C(CSc1ncn[nH]1)Nc1ccc([N+](=O)[O-])cc1Br,"inconclusive: 16.4 µM [falling, partial curve, poor fit]",
CCCCN(CC)CCNc1ncnc2onc(-c3ccc(Cl)cc3)c12,,inactive: 4.69%
O=C(/C=C/Sc1ncn[nH]1)c1ccc(Cl)cc1,"inconclusive: 23.1 µM [activator, single point]",
Cc1ccc(C)c(S(=O)(=O)Nc2cc3c4c(c2)CCC(=O)N4CCC3)c1,"inconclusive: 4.11 µM [falling, partial curve, poor fit]",
COc1cccc(-c2ncc3ccccc3c2COC(=O)c2ccc(F)cc2)c1,"inconclusive: 32.6 µM [falling, single point]",
Cc1nn(C(C)C(=O)NCc2cccs2)c(=O)c2nn(-c3ccccc3)c(C)c12 (configuration not stated),,inactive: -17.5%
COc1ccccc1-n1c(SCC(=O)O)nc2c(sc(=S)n2-c2ccc(C)c(C)c2)c1=O,,inactive: -8.91%
CCc1ccc(C2=NN(c3ccc(S(N)(=O)=O)cc3)C(c3ccc(F)cc3)C2)cc1 (configuration not stated),"inconclusive: 13 µM [falling, single point]",
CCCN1CCCc2cc(CN)ccc21,active: 9.2 µM,
CCN(CC)S(=O)(=O)c1ccc(=O)n(CC(=O)N2CCCc3cc(C)ccc32)c1,"inconclusive: 16.4 µM [falling, partial curve, poor fit]",

# Quoted from the results shown for reference:
Compound,Potency,"activity change, negative = inhibition"
CN(NC(=O)Nc1ccc(Cl)cc1)c1ncc(C(F)(F)F)cc1Cl,"inconclusive: 29.1 µM [falling, single point]",
Cc1cccc(-c2nnc(SCCC(=O)N3CCOCC3)o2)c1,"inconclusive: 14.6 µM [falling, single point]",
O=C(NC1CC1)C1CCN(C(=O)c2ccc(Cl)cc2Cl)CC1,"inconclusive: 29.1 µM [falling, single point]",

# Further entries:

Compound,Potency,"activity change, negative = inhibition"
CC(C)c1ccc(C(=O)NN2C(=O)C3CCCCC3C2=O)cc1 (configuration not stated),"inconclusive: 1.03 µM [activator, partial curve, poor fit]",
CC(=O)Nc1cccc(NC(=S)Nc2cccc(Cl)c2Cl)c1,,inactive: -10.7%
Cc1cccc(-n2cnc(C(=O)O)c2)n1,,inactive: -3.67%
CC(C)(C)c1ccc(C(=O)Nc2cccc3ncccc23)cc1,"inconclusive: 29.1 µM [falling, single point]",
Cn1cccc1/C=N/NC(=O)c1sc2ccccc2c1Cl,"inconclusive: 11.6 µM [activator, partial curve, poor fit]",
COc1ccc(S(=O)(=O)N2CCCCCC2)cc1C(=O)N(C)Cc1ccc(F)cc1,"inconclusive: 18.4 µM [falling, partial curve, poor fit]",
O=C(c1ccc2c(c1)OCO2)N1CCN(c2ccc(C(F)(F)F)cn2)CC1,active: 11.6 µM,
CCCCC(=O)Nc1ccccc1N1CCN(c2ccc(F)cc2)CC1,"inconclusive: 20.6 µM [falling, partial curve]",
Cn1c(SCC(=O)NCc2ccc3c(c2)OCO3)ncc(C(=O)Nc2ccc(F)cc2)c1=O,"inconclusive: 25.9 µM [activator, single point]",
O=C(CN1C(=O)C(c2ccc(F)cc2)=NC12CCCC2)Nc1ccc(F)cc1,"inconclusive: 23.1 µM [falling, single point]",
Cc1cc(C)cc(N2CCCn3c2nc2c3c(=O)n(CCN3CCOCC3)c(=O)n2C)c1,"inconclusive: 0.13 µM [activator, full curve, poor fit]",
CCc1ccc(CNC(=O)C(CC)n2nc(C)c3c(C)n(-c4ccccc4)nc3c2=O)cc1 (configuration not stated),"inconclusive: 11.6 µM [falling, partial curve]",
COc1ccccc1/C=C/C(=O)OCCN1C(=O)c2ccccc2C1=O,"inconclusive: 6.51 µM [activator, single point]",
O=C(NC1=NCCS1)c1csc2ccccc12,"inconclusive: 0.92 µM [activator, full curve]",
c1ccc(-c2ccc(-c3cn4c(n3)CCC4)cc2)cc1,"inconclusive: 0.103 µM [activator, full curve]",
O=C(O)CCC(=O)N1N=C(c2ccccc2)CC1c1ccc2nccnc2c1 (configuration not stated),"inconclusive: 2.06 µM [activator, full curve, poor fit]",
O=C(NCc1ccccn1)Nc1ccc2c(c1)OCO2,"inconclusive: 20.6 µM [activator, single point]",
COc1ccc(OC)c(C2=CC(=O)C[C@H](c3ccc4c(c3)OCO4)C2)c1,,inactive: -24.2%
Cc1cccnc1NC(=S)NC(=O)c1cccs1,"inconclusive: 0.92 µM [activator, full curve]",
Fc1ccccc1CNC(=S)Nc1cccc(C(F)(F)F)c1,"inconclusive: 23.1 µM [falling, single point]",
CCn1c(N2CCN(C(=O)Nc3ccc(F)cc3)CC2)nc2ccccc21,"inconclusive: 6.51 µM [falling, partial curve]",
COc1ccc(CNc2nc(-c3ccco3)nn2C(=O)CC(C)C)cc1,"inconclusive: 11.6 µM [activator, partial curve]",
CCOC(=O)c1[nH]c2ccccc2c1NC(=O)c1ccccc1OC,,inactive: 6.48% [at 9.27 µM]

Compound,Potency,"activity change, negative = inhibition"
Cc1ccc(-n2c(-c3ccc(Cl)cc3)c[n+]3c2CCC3)cc1,active: 3.66 µM,
Cc1ccccc1OCC(=O)Nc1nc(-c2ccncc2)cs1,"inconclusive: 5.8 µM [falling, partial curve, poor fit]",
O=C(NCc1ccc(F)cc1)c1ccc2c(c1)S(=O)(=O)c1ccccc1C2=O,,inactive: -23.3%
COc1ccc(C2=NN3C(C2)c2ccccc2OC3c2cccs2)cc1 (configuration not stated),"inconclusive: 20.6 µM [activator, single point]",
O=c1c2sccc2nc(SCc2cc(=O)n3ccccc3n2)n1-c1ccc(Br)cc1,"inconclusive: 23.1 µM [falling, partial curve, poor fit]",
OCCN(CCO)c1ccc(C(c2ccc(Cl)cc2)c2ccc(N(CCO)CCO)cc2Cl)c(Cl)c1,"inconclusive: 18.4 µM [falling, partial curve, poor fit]",
Cn1nc(C(=O)Nc2cccc(C(F)(F)F)c2)ccc1=O,"inconclusive: 32.6 µM [falling, single point]",
Cc1ccc(NC(=O)CCNC(=O)c2ccc(Br)cc2)cc1S(=O)(=O)N1CCOCC1,,inactive: -29.3%
CCC(=O)Nc1ccc(S(=O)(=O)N2CCc3ccccc32)cc1,,inactive: 1.6%
O=C(Cn1c(=O)cnc2ccccc21)Nc1cccc(S(=O)(=O)N2CCCCC2)c1,"inconclusive: 18.4 µM [falling, partial curve, poor fit]",
O=C(N/N=C/c1cc(Br)cc(Br)c1O)c1ccncc1,"inconclusive: 20.6 µM [falling, single point]",
Cc1ccc(Oc2nc3c(c(=O)n(Cc4ccccc4Cl)c(=O)n3C)n2C)cc1C,,inactive: -2.38%
CC1CCc2nc(NC(=O)c3ccco3)sc2C1 (configuration not stated),"inconclusive: 14.6 µM [falling, single point]",
CC(C)CC(C(=O)Nc1oc(-c2ccccc2)c(-c2ccccc2)c1C#N)N1C(=O)c2ccccc2C1=O (configuration not stated),"inconclusive: 16.4 µM [falling, single point]",
Cc1ccc(-c2cc(C(=O)N/N=C/c3ccc([N+](=O)[O-])o3)c3ccccc3n2)o1,active: 20.6 µM,
COc1ccc(-c2nc(NC(=O)c3c(C)noc3C)sc2C)cc1,"inconclusive: 6.51 µM [falling, full curve]",
COc1cc2c(cc1NC(=O)CSc1nnnn1-c1ccccc1)oc1ccccc12,"inconclusive: 13 µM [falling, partial curve, poor fit]",
CCC(C)(C)C(=O)O[C@H]1C[C@@H](C)C=C2C=C[C@H](C)[C@H](CC[C@@H]3C[C@@H](O)CC(=O)O3)[C@H]21,"inconclusive: 25.9 µM [activator, single point]",
NC(=O)NC(=O)COC(=O)/C=C/c1cccc(Br)c1,,inactive: 18.9%
COc1ccc(C2c3ccc4ccccc4c3Oc3ncn(CCN4CCOCC4)c(=N)c32)cc1 (configuration not stated),"inconclusive: 0.517 µM [falling, full curve, poor fit]",
Nc1c(-c2cccs2)cnc2c(-c3ccc(F)cc3)cnn12,"inconclusive: 23.1 µM [activator, partial curve]",
